From paper PMC7567072
Results are given in words; binding and its absence hold for the method and conditions named. Binding seen in cells or lysates may run through a third protein. Some entries that bind do so weakly or less than the wild type. For some of these results: Where a sequence is shown, tags or fusion partners need not be part of it.

Chains of the proteins cited; added tags and fusions are not shown.
UniProt P06430: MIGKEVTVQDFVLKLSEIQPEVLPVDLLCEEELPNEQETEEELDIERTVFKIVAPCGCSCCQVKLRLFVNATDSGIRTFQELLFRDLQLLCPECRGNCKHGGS
UniProt P03129: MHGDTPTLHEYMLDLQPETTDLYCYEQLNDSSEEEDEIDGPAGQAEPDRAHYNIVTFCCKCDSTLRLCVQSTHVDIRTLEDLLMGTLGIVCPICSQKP

Legend:
[1] = target: FLAG-tagged HPV8-E7 (pCMV2-HPV8-E7-FLAG), in C33a cells (human papillomavirus type 8 (HPV8)) (UniProt P06430); test: co-IP; whole protein lysates of transiently transfected C33a cells on M2-FLAG agarose beads, 0.1 M LSDB buffer, 3 h at 4 °C, five washes; blot for ATP5B
[2] = target: FLAG-HA-HPV16-E7 (Flag-HA-tagged pCMV HPV-16 E7), in HEK293 cells (human papillomavirus type 16 (HPV16)) (UniProt P03129); test: co-IP; extracts of HEK293 cells 24 h after transfection, anti-FLAG antibody conjugated beads; blot for endogenous ATP5B
[3] = target: T1, FLAG-HPV11-E7 (FLAG-tagged pCMV HPV-11 E7), in HEK293 cells (human papillomavirus type 11 (HPV11)) (UniProt P04020); test: as above
T1 sequence: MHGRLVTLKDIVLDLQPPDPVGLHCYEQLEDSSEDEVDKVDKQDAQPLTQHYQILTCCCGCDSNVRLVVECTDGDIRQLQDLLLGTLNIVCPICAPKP

[4] = target: FLAG-HPV8-E7 (pCMV2-HPV8-E7-FLAG), in HEK293 cells (human papillomavirus type 8 (HPV8)) (UniProt P06430); test: as above

| Substance | binding [1] | binding [2] | binding [3] | binding [4] |
| --- | --- | --- | --- | --- |
| ATP5B, beta subunit of the mitochondrial ATP synthase, in C33a cells (from UniProt P06576 48-529) | binds | – | – | – |
| endogenous ATP5B, in HEK293 cells (from UniProt P06576 48-529) | – | binds | binds | binds |
